Article PMC3334623

Chains of the proteins cited; added tags and fusions are not shown.
UniProt Q3UCQ1: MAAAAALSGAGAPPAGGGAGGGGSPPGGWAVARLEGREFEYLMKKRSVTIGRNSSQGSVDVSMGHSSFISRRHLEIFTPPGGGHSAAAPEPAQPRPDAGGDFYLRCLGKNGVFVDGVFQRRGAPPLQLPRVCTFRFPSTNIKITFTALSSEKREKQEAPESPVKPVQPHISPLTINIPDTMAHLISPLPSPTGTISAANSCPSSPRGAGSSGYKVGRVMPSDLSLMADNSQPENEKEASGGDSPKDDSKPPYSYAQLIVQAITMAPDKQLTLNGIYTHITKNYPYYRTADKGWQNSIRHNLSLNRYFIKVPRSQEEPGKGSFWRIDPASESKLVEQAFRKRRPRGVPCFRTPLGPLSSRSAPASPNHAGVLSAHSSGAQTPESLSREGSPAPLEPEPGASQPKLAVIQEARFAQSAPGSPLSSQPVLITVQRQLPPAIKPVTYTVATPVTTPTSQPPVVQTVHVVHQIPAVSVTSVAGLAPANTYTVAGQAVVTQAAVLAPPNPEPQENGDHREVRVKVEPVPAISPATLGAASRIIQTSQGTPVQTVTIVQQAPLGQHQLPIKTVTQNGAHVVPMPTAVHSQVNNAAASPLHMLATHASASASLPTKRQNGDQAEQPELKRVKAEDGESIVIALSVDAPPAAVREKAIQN
UniProt P70288: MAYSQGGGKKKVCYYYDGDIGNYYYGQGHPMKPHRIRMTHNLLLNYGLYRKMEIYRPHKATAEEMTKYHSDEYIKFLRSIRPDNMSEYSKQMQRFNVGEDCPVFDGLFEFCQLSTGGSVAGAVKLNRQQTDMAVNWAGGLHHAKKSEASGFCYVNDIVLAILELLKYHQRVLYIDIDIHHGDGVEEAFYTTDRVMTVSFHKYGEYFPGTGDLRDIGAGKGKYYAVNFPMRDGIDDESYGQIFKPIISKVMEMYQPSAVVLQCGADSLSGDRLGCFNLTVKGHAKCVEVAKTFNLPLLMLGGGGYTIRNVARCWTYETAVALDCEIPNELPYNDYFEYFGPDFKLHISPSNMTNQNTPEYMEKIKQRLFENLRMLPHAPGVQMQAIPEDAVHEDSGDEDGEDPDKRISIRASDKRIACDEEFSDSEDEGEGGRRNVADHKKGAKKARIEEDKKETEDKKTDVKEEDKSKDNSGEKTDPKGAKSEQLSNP
UniProt Q8BSN5: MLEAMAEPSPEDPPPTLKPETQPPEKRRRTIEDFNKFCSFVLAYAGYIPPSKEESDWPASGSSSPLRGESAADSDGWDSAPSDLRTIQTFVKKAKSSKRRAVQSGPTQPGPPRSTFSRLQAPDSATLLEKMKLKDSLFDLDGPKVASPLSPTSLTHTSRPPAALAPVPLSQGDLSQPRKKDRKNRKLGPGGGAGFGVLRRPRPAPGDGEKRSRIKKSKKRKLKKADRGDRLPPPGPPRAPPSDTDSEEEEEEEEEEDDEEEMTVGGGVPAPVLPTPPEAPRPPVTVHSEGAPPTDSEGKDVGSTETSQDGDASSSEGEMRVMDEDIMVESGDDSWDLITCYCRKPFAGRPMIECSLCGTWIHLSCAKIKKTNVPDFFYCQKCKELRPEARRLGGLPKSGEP
UniProt P28574: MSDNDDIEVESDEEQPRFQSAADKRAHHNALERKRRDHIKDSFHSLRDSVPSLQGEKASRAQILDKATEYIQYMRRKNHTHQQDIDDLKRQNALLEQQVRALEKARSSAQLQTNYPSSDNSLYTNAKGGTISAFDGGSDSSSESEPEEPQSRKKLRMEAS
UniProt O09106: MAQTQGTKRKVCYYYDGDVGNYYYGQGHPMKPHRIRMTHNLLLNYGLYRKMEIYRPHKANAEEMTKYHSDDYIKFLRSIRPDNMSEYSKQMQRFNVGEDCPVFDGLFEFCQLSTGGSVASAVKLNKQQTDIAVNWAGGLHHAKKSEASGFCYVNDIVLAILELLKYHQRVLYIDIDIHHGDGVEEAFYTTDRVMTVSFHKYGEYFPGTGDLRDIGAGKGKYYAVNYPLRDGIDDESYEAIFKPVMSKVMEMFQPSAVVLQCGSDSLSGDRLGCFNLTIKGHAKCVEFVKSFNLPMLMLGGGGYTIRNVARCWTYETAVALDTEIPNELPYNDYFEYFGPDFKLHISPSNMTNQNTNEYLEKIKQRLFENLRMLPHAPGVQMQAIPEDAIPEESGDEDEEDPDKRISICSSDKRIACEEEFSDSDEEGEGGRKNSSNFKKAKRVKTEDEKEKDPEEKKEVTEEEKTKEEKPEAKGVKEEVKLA
UniProt O54946: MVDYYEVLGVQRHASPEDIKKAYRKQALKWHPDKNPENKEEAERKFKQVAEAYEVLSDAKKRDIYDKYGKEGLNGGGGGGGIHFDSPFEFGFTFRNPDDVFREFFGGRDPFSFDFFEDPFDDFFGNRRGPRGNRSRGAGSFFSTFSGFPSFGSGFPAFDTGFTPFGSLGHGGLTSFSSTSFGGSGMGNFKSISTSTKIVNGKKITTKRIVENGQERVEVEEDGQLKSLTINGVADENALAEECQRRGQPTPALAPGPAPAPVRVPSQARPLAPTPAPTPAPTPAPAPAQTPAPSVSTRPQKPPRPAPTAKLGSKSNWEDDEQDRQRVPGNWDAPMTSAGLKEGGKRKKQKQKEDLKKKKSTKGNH
UniProt P63087: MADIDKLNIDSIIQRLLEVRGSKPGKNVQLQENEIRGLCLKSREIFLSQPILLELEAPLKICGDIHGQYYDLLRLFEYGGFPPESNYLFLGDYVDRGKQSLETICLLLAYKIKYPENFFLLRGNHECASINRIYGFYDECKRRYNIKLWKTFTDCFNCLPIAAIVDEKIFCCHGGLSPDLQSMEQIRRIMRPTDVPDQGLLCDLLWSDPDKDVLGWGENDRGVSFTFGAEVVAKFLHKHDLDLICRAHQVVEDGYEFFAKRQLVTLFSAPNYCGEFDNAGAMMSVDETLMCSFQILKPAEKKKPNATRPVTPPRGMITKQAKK
UniProt Q3UHR0: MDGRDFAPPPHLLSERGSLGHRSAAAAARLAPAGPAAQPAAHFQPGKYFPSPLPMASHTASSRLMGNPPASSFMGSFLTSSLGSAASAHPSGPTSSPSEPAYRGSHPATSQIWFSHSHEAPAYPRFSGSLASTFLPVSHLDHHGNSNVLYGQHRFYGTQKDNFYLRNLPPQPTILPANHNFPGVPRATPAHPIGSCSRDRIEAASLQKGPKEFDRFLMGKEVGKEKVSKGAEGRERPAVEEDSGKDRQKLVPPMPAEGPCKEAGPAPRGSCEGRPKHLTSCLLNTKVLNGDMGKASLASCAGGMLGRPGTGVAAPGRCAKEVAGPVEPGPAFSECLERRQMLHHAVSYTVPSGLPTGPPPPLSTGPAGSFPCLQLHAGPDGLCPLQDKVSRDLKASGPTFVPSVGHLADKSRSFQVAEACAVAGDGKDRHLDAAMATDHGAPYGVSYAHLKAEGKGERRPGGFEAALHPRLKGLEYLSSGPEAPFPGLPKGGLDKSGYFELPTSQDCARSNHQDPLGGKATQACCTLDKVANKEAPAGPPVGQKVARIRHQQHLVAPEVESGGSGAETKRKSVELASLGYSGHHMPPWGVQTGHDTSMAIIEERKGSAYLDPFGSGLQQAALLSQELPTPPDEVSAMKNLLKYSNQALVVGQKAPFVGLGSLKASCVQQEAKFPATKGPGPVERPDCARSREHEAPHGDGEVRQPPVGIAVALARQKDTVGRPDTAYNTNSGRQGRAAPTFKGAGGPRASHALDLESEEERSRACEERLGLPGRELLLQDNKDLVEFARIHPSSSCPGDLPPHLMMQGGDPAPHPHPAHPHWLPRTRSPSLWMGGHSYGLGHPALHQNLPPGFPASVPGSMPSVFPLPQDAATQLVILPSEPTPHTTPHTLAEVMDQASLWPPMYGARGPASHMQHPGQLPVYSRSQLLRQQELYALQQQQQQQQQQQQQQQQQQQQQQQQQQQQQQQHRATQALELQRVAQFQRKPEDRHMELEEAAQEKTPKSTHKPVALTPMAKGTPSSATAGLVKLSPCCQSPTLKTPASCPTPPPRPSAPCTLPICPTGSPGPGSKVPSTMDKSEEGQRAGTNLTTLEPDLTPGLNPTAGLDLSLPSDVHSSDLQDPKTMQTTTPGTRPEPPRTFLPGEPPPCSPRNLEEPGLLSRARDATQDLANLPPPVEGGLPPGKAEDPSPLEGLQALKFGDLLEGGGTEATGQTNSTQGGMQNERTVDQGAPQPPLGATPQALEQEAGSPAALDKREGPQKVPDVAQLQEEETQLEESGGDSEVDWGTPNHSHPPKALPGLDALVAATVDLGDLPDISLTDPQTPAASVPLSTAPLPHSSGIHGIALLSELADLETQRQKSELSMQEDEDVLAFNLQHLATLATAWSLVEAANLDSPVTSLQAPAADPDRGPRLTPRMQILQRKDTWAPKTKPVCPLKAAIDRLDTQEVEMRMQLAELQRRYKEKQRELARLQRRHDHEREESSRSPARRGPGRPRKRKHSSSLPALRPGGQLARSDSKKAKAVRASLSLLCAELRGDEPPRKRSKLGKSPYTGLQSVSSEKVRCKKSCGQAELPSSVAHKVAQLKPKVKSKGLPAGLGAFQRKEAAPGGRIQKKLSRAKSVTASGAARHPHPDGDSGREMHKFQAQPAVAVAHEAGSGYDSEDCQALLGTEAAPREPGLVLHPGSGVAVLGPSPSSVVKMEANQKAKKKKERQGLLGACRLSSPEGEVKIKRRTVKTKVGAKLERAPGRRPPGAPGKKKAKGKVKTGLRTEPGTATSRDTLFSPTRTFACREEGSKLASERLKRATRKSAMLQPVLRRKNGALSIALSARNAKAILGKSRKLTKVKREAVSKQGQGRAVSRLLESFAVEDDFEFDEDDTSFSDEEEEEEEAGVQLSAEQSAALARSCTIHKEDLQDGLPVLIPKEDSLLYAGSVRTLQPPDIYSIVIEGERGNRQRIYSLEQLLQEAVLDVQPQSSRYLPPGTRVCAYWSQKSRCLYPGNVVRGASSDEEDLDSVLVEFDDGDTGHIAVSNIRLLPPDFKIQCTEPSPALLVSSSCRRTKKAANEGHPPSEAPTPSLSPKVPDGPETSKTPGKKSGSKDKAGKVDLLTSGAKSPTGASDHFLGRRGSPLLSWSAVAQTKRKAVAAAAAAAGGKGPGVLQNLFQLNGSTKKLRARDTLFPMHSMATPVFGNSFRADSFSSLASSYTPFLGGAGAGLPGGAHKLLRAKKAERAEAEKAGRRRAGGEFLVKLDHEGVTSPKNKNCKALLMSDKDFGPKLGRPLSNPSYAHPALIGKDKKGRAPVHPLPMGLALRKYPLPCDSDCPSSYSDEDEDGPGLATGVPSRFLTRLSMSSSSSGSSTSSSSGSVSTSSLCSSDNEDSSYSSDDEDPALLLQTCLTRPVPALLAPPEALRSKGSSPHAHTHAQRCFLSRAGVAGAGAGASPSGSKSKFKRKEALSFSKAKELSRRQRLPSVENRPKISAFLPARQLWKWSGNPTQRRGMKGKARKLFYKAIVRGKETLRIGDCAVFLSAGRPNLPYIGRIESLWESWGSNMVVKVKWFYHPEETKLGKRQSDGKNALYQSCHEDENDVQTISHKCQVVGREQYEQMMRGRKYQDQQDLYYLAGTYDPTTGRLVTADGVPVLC
UniProt P23198: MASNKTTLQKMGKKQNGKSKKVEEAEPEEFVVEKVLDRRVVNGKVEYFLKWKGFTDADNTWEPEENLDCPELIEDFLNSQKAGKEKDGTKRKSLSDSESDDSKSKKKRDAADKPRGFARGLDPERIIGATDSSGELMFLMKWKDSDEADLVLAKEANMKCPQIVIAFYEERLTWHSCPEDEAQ
UniProt Q9JJZ6: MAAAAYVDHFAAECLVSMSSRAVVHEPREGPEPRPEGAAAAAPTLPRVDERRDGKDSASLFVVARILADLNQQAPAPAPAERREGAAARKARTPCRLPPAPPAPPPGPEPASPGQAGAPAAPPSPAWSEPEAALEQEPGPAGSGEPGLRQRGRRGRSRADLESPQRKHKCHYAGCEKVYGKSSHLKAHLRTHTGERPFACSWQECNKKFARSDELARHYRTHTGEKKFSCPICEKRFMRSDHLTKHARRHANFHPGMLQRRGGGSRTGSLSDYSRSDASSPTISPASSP

T1: Sin3a-3xFLAG (mouse) (UniProt Q60520)
T1 sequence: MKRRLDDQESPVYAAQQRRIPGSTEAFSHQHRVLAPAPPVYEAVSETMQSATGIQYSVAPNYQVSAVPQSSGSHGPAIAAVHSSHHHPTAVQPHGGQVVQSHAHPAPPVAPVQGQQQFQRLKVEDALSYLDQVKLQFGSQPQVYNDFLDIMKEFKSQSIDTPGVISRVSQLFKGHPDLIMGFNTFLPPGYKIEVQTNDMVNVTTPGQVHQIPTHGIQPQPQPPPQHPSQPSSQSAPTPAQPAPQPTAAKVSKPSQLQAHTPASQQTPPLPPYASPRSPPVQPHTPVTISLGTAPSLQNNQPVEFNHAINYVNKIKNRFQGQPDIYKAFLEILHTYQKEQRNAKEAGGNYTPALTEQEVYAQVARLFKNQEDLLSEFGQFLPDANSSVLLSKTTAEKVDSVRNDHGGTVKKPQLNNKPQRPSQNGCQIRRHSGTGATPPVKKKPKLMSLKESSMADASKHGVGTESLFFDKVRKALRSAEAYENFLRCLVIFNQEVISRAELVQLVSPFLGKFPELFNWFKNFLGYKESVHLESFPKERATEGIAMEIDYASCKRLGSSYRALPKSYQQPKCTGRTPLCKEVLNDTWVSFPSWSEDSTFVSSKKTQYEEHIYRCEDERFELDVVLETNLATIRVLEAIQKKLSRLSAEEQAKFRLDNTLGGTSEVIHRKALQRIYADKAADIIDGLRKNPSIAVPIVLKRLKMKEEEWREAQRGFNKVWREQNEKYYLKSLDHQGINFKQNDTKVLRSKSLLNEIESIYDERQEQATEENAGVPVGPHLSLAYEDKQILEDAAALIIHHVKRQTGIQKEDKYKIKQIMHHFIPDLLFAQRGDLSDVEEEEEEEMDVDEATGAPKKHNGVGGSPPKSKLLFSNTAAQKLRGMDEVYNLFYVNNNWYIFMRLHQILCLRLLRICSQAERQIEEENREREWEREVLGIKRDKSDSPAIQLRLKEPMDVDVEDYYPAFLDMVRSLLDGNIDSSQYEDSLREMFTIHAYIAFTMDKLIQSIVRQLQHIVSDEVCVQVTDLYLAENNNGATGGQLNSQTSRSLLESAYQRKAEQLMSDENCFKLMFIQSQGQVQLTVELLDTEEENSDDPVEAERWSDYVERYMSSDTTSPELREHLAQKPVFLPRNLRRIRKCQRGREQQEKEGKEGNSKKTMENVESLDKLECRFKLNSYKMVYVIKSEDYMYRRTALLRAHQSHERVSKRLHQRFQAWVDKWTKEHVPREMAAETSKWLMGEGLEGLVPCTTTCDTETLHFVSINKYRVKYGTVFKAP


Molecular target: T1, Sin3a-3xFLAG (mouse)
Assay: affinity purification with mass spectrometry; anti-FLAG M2 resin, 4 h at 4 °C, with 13-15 mg nuclear extract of E14tg2a ES cells expressing Sin3a-3xFLAG or 3xFLAG alone; IP buffer 25 mM HEPES-KOH pH 7.6, 140 mM KCl, 10% glycerol, 0.1% Igepal CA-630; washes with 250 mM KCl; elution with 3x FLAG peptide; SDS-PAGE and LC-MS/MS; four independent pull downs

Molecule | binding
Foxk2 (from UniProt Q3UCQ1 1-651) | binds
Hdac2 (from UniProt P70288 1-488) | binds
Phf23 (from UniProt Q8BSN5 1-401) | binds
Max (from UniProt P28574 1-160) | binds
Hdac1 (from UniProt O09106 1-482) | binds
DnaJ homolog subfamily B member 6 (from UniProt O54946 1-365) | binds
Ppp1cc (from UniProt P63087 1-323) | binds
Bahcc1 (from UniProt Q3UHR0 1-2643) | binds
Cbx3 (from UniProt P23198 1-183) | binds
Klf13 (from UniProt Q9JJZ6 1-289) | binds
Ing2 (protein, UniProt Q9ESK4 1-281) MLGQQQQQQLYSSAALLTGERSRLLSCYVQDYLECVESLPHDMQRNVSVLRELDNKYQETLKEIDDVYEKYKKEDDSNQKKRLQQHLQRALINSQELGDEKIQIVTQMLELVENRARQMELHSQCFQDPAESERASDKSKMDSSQPERSSRRPRRQRTSESRDLCHMTNGIDDCDDQPPKEKRSKSAKKKKRSKAKQEREASPVEFAIDPNEPTYCLCNQVSYGEMIGCDNEQCPIEWFHFSCVSLTYKPKGKWYCPKCRGDNEKTMDKSTEKTKKERRAR | binds
Sap30 (protein, UniProt O88574 1-220) MNGFTPEEMSRGGDAAAAVAAVVAAAAAAASAGNGNAAGGGAEVPGAGAVSASGPPGAAGPGPGQLCCLREDGERCGRAAGNASFSKRIQKSISQKKVKIELDKSARHLYICDYHKNLIQSVRNRRKRKGSDDDGGDSPVQDIDTPEVDLYQLQVNTLRRYKRHFKLPTRPGLNKAQLVEIVGCHFKSIPVNEKDTLTCFIYSVRNDKNKSDLKADSGVH | binds
Brms1 (protein, UniProt Q99N20 1-246) MPIQPSGKETEEMEAEGDSAAEMNGEADESEEERSGSQTESEEESSEMDDEDYERRRSECVSEMLDLEKQFSELKEKLFRERLSQLRLRLEEVGAERAPEYTEPLGGLQQSLKIRIQVAGIYKGFCLDVIRNKYECELQGAKQHLESEKMLLYDTLLGELQERIQRLEEDRQSLDISSEWWDDKLHSRSSSKAGDAMPPSKRKKAPLVSGPYIVYMLQEIDILEDWTAIKKARAAVSPQKRKADGP | binds
Sap30l (protein, UniProt Q5SQF8 1-182) MNGFSTEEDSREGPPAAPAAAPGYGQSCCLIADGERCVRPAGNASFSKRVQKSISQKKLKLDIDKSVRHLYICDFHKNFIQSVRNKRKRKASDDGGDSPEHDADIPEVDLFQLQVNTLRRYKRHYKLQTRPGFNKAQLAETVSRHFRNIPVNEKETLAYFIYMVKSNRSRLDQKSEGSKQLE | binds
Ogt (O-linked N-acetylglucosamine transferase) (protein, UniProt Q8CGY8 1-1046) MASSVGNVADSTEPTKRMLSFQGLAELAHREYQAGDFEAAERHCMQLWRQEPDNTGVLLLLSSIHFQCRRLDRSAHFSTLAIKQNPLLAEAYSNLGNVYKERGQLQEAIEHYRHALRLKPDFIDGYINLAAALVAAGDMEGAVQAYVSALQYNPDLYCVRSDLGNLLKALGRLEEAKACYLKAIETQPNFAVAWSNLGCVFNAQGEIWLAIHHFEKAVTLDPNFLDAYINLGNVLKEARIFDRAVAAYLRALSLSPNHAVVHGNLACVYYEQGLIDLAIDTYRRAIELQPHFPDAYCNLANALKEKGSVAEAEDCYNTALRLCPTHADSLNNLANIKREQGNIEEAVRLYRKALEVFPEFAAAHSNLASVLQQQGKLQEALMHYKEAIRISPTFADAYSNMGNTLKEMQDVQGALQCYTRAIQINPAFADAHSNLASIHKDSGNIPEAIASYRTALKLKPDFPDAYCNLAHCLQIVCDWTDYDERMKKLVSIVAEQLEKNRLPSVHPHHSMLYPLSHGFRKAIAERHGNLCLDKINVLHKPPYEHPKDLKLSDGRLRVGYVSSDFGNHPTSHLMQSIPGMHNPDKFEVFCYALSPDDGTNFRVKVMAEANHFIDLSQIPCNGKAADRIHQDGIHILVNMNGYTKGARNELFALRPAPIQAMWLGYPGTSGALFMDYIITDQETSPAEVAEQYSEKLAYMPHTFFIGDHANMFPHLKKKAVIDFKSNGHIYDNRIVLNGIDLKAFLDSLPDVKIVKMKCPDGGDNPDSSNTALNMPVIPMNTIAEAVIEMINRGQIQITINGFSISNGLATTQINNKAATGEEVPRTIIVTTRSQYGLPEDAIVYCNFNQLYKIDPSTLQMWANILKRVPNSVLWLLRFPAVGEPNIQQYAQNMGLPQNRIIFSPVAPKEEHVRRGQLADVCLDTPLCNGHTTGMDVLWAGTPMVTMPGETLASRVAASQLTCLGCLELIAKSRQEYEDIAVKLGTDLEYLKKIRGKVWKQRISSPLFNTKQYTMELERLYLQMWEHYAAGNKPDHMIKPVEVTESA | binds
Pspc1 (protein, UniProt Q8R326 1-523) MMLRGNLKQVRIEKNPARLRALESAAGESEPVAAAAMALTLAGEQAPPPAPSEEHPDEELGFTIDIKSFLKPGEKTYTQRCRLFVGNLPTDITEEDFKRLFERYGEPSEVFINRDRGFGFIRLESRTLAEIAKAELDGTILKSRPLRIRFATHGAALTVKNLSPVVSNELLEQAFSQFGPVEKAVVVVDDRGRATGKGFVEFAAKPPARKALERCGDGAFLLTTTPRPVIVEPMEQFDDEDGLPEKLMQKTQQYHKEREQPPRFAQPGTFEFEYASRWKALDEMEKQQREQVDRNIREAKEKLEAEMEAARHEHQLMLMRQDLMRRQEELRRLEELRNQELQKRKQIQLRHEEEHRRREEEMIRHREQEELRRQQEGGFKPNYMENREQEMRMGDMGPRGAINMGDAFSPAPAGTQGPPPMMGMNMNNRGTIPGPPMGPGPAMGPEGAANMGTPMIPDNGAVHNDRFPQGPPSQMGSPMGNRTGSETPQAPMSGVGPVSGGPGGFGRGSQGGNFEGPNKRRRY | binds
Arid4b (protein, UniProt A2CG63 1-1314) MKALDEPPYLTVGTDVSAKYRGAFCEAKIKTAKRLVKVKVTFRHDSSTVEVQDDHIKGPLKVGAIVEVKNLDGAYQEAVINKLTDASWYTVVFDDGDEKTLRRSSLCLKGERHFAESETLDQLPLTNPEHFGTPVIGKKTNRGRRSNHIPEEESSSSSSDDDEEERKQTDELLGKVVCVDYVSLEKKKAMWFPALVVCPDCSDEIAVKKDNILVRSFKDGKFTSVPRKDVHEITSDTVPKPDAVLKQAFDQALEFHKSRAIPANWKTELKEDSSSSEAEEEEEEEDDEKEKEDNSSEEEEEIEPFPEERENFLQQLYKFMEDRGTPINKRPVLGYRNLNLFKLFRLVHKLGGFDNIESGAVWKQVYQDLGIPVLNSAAGYNVKCAYKKYLYGFEEYCRSANIDFQMALPEKVLNKPCKDCENKEVKVKEESETEIKEVNVEDSKNVMPKEETPAEDESERKENIKPSLGSKKSLLECIPAQSDEEKEAHITKLEENENLEDKDGGRARTEEAFSTEVDGEEEQARSGDETNKEEDEDDEEIEEEEEEDEEEDEDEDDDDNNEEEEFECYPPGMKVQVRYGRGKNQKMYEASIKDSDVEGGEALYLVHYCGWNVRYDEWIKADKIVRPADKNVPKIKHRKKIKNKLDKEKDRDEKYSPKNCKLRRLSKSPFQSNPSPEMVSKLDLADAKNSDTAHIKSIEITSILNGLQASESSAEDSEQEDERCTQDVDNIGKDESKVEHSTHSRNELISKEEQSSPSLLEENKVHTDLVIAKTVSKSPERLRKDMEAISEDTDFEEEDEITKKRKDVKKDTTDKALKPQTKRGKRRYCSADECLQTGSPGKKEDRTKSKEPLCTENSSNSSSDEDEEEKSKAKMTPTKKYNGLEEKRKSLRTTSFYSGFSEVAEKRIKLLNNSDERLQNNRAKDRKDVWSSIQGQWPKKTLKELFSDSDTEAAASPPHPAPDEGAVEESLQTVAEEESCSPIMELEKPLPASVDNKPIEEKPLEVSDRKTEFPSSGSNSVLNTPPTTPESPSSVTITEASQQQSSVTVSVPLPPNQEEVRSIKSETDSTIEVDSVVGELQDLQSEGNSSPAGFDASVSSSSSNQPEPDNPEKACTGQKRVKDTQGVGSSSKKQKRSHKATVVNNKKKGKGTNSSDSEELSAGESVTKTQTIKSVPTGMKTHNSKSPARVQSPGKGGRNGDKDPDLKEPSNRLPKVYKWSFQTSDLENMTSAERISILQEKLQEIRKHYLSLKSEVASIDRRRKRLKKKERESAATSSSSSSPSSSSITAAVMLTLAEPSMSSASQNGMSVECR | binds
GATA-like protein 1 (protein, UniProt Q1WG82 1-266) MEAAQAGDLTRRQELLAPPCLDTESLRKSRPPALEPGALRCLTPNIRSLWPTCQDSVSTALPFLQEKEKGLPGSPSPATQVLGSCWELMVIGMSDHLSMARNPRGTQCPNLEISSATSPASLQRRPRKQLNPRMGIEKVDPRFKGVTLEFQIQPDSSLQIVPTYSLPGRSCSQKLPASPSKALASPGSSEALGPRRCASCRTQRTPLWRDAEDGTPLCNACGIRYKKYGTRCSSCWLVPRKSIQPKRLCGRCGMSQDPHLSPTQEL | binds

Results are given in words; binding and its absence hold for the method and conditions named. In cells and extracts the contact can be indirect. A yes stands for co-enrichment or nearness to the bait. Other partners may have been found. Where a sequence is shown, tags or fusion partners need not be part of it.
